Results: the supplement of paper PMC11098740
The list shows a part of the results. Repeats are few or missing, and single values can be far off.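 The assay uses a mixed pool of 41 HAP1 clones in which 61 cancer-associated proteins bear intron-inserted fluorescent tags, and clones are distinguished by image pattern. Results are compared against DMSO-treated control wells, and the BRD4 degrader dBET6 is the positive control.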

Sequences of proteins named here, by UniProt entry; tags and fusion partners are left off.
UniProt O14980, whole entry: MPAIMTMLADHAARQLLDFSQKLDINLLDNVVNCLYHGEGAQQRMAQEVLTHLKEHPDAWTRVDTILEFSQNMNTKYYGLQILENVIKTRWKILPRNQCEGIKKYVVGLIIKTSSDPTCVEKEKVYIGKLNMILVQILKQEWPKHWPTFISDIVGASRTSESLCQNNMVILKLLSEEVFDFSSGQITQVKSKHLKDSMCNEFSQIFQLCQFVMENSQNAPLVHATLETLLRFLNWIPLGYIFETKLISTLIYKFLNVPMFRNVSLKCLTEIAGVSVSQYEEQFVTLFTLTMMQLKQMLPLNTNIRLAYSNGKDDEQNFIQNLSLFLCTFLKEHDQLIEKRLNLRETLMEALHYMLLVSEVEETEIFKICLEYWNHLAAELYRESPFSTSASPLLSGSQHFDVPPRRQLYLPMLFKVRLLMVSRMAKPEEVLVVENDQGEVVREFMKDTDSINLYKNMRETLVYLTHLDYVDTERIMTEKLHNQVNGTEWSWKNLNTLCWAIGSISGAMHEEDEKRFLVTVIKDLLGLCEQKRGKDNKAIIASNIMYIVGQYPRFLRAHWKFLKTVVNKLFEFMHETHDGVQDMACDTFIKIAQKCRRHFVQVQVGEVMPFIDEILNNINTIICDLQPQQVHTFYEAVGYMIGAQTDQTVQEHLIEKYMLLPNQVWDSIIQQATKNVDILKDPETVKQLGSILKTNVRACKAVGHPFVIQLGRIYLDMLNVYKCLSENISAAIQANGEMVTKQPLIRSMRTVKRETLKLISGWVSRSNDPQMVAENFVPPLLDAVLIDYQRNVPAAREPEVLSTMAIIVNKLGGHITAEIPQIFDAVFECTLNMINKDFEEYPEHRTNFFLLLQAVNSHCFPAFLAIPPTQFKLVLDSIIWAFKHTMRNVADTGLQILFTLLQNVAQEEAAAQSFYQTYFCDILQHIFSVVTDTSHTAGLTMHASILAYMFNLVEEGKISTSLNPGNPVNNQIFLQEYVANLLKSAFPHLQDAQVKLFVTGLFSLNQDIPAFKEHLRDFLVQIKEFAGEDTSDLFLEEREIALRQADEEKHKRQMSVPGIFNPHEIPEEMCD

Target: XPO1 (intron 15 mScarlet tag, HAP1) (UniProt O14980)
Assay: XPO1 fluorescence intensity change vs DMSO (log2 fold change); higher = more XPO1 protein
Settings: 6 h

SMILES | XPO1 fluorescence intensity change (log2)
Cc1nn(C)c2sc(C(=O)Nc3ccc4oc(C(F)(F)F)nc4c3)cc12 (10 µM) | -0.149
COc1cccc(-n2cnnc2SCC(=O)NCc2ccc(Cl)cc2)c1 (10 µM) | 0.0652
COc1cc(S(=O)(=O)NCCc2c(C)[nH]c3ccc(Br)cc23)c(C)cc1C (10 µM) | -0.0703
COc1cc2c(cc1OC)CN(C(C)C(=O)Nc1ccccc1Cl)CC2 (centres undefined) (10 µM) | 0.131
COc1ccc2c(c1)CCCN2C(=O)c1cc(Cl)cc(Cl)c1 (10 µM) | -0.162
CCOC(=O)c1c(-c2cccs2)csc1NC(=O)CCCl (10 µM) | -0.234
O=C(CCN1CCSC1=O)NCc1nccc2ccccc12 (10 µM) | 0.0611
CC(=O)Nc1nc2ccc(NC(=O)c3c(C)nn(C)c3C)cc2s1 (10 µM) | -0.124
O=C(Cc1noc(CCl)n1)NCc1ccccc1 (10 µM) | 0.0363
Cc1cn2cc(NC(=O)COCc3ccccc3Cl)ccc2n1 (10 µM) | 0.245
CCOC(=O)C1=C(CCl)NC(=O)NC1c1ccccc1OC(F)F (centres undefined) (10 µM) | -0.0551
CN(C)c1c(F)cc(NC(=O)NCc2ccccc2CO)cc1F (10 µM) | -0.0982
COc1ccc2nc(C)c(C(=O)Nc3nc(-c4ccccn4)cs3)cc2c1 (10 µM) | -0.0119
Cc1cccc(/C=C/C(=O)c2ccc(O)c(CCCl)c2)c1 (10 µM) | -0.114
CCN(c1ccc(NC(=O)CCc2cscn2)cc1)C(C)C (10 µM) | -0.0135
CCCN1C(=O)C(=O)c2cc(Cl)ccc21 (10 µM) | -0.0118
CCOC(=O)C1=C(CCl)NC(=O)NC1c1ccccc1 (centres undefined) (1 µM) | 0.0992
COc1ccc2cc(C(C)c3nc4ccccc4n3C(C)C)ccc2c1 (centres undefined) (0.1 µM) | 0.176
COc1ccc(-c2noc(CCl)n2)c(OC)c1 (1 µM) | -0.00946
O=C(Nc1ccc(OC(F)(F)F)cc1)N1CCc2ccccc2C1 (10 µM) | 0.101

Copied from the list:
XPO1 fluorescence intensity change (log2) with O=C(Cc1noc(CCl)n1)NCc1ccccc1 (10 µM) reads 0.0363
XPO1 fluorescence intensity change (log2) with CCCN1C(=O)C(=O)c2cc(Cl)ccc21 (10 µM) reads -0.0118
XPO1 fluorescence intensity change (log2) with CN(C)c1c(F)cc(NC(=O)NCc2ccccc2CO)cc1F (10 µM) reads -0.0982

Carrying on.

SMILES | XPO1 fluorescence intensity change (log2)
N#CC(C#N)=C1C=CC=CN1/C(=C/c1ccc(F)cc1)C(=O)c1ccccc1 (1 µM) | -0.2
Cc1nc2ccc(Cl)cc2cc1C(=O)NCCNc1ncnc2sccc12 (10 µM) | -0.0264
CCOC(=O)C1=C(CCl)NC(=O)NC1c1cccs1 (centres undefined) (10 µM) | -0.51
COc1cccc(CS(=O)(=O)CCC(=O)Nc2ccc3c(c2)CCC3)c1 (1 µM) | -0.0965
CN(C)c1ccc(C(=NC(=O)c2ccccc2NS(=O)(=O)c2ccc(F)cc2)c2ccc(N(C)C)cc2)cc1 (10 µM) | 0.154
Cc1cc(N2CCN(CCOc3ccc(Cl)cc3)CC2)nc(N)n1 (10 µM) | 0.0643
COC(=O)Nc1nc2cc(C(=O)c3cccs3)ccc2[nH]1 [nocodazole] (10 µM) | -0.196
Cn1nc(CC(=O)Nc2cc(C(C)(C)C)ccc2O)c2ccccc2c1=O (10 µM) | -0.13
O=C(Nc1cccc(CN2CCCC2=O)c1)c1ccc(-c2ccccc2)cc1 (10 µM) | -0.0878
N#CCn1c(CCl)nc2sc3c(c2c1=O)CCCC3 (10 µM) | -0.408
C[C@@H](NC(=O)c1ncnc(N)c1Cl)c1ncc(C(=O)Nc2cc(C(F)(F)F)c(Cl)cn2)s1 (10 µM) | -0.0912
COc1ccccc1Nc1nc(-c2ccc(S(C)(=O)=O)cc2)cs1 (10 µM) | -0.38
COc1ccc(-n2ccc(C(=O)Nc3ccnn3-c3ccccc3C)n2)cc1 (0.1 µM) | 0.0888
O=C(NCC(c1cccs1)N1CCOCC1)c1ccsc1 (centres undefined) (10 µM) | -0.0213
COc1ccc(C)cc1N1CC(C(=O)Nc2nc3ccccc3[nH]2)CC1=O (centres undefined) (1 µM) | -0.00155
COc1ccc(S(=O)(=O)Nc2ccc(-c3ccccc3)cc2)c(C)c1C (10 µM) | 0.115
COc1ccccc1-c1cc(C(=O)NCCc2ccccc2)no1 (10 µM) | 0.056
O=C(CCc1cccs1)Nc1ncc(Cc2cccc(Cl)c2)s1 (0.1 µM) | -0.0127
CC1CCc2c(sc3nc(CCCl)nc(N)c23)C1 (centres undefined) (10 µM) | -0.0281
